Results as given in patent US8563000B2 (Ipsen Pharma S.A.S., priority 2007, dated 2013).

Assay: general procedure: Fmoc solid-phase peptide synthesis; Rink Amide MBHA resin (0.78 mmol/g, Novabiochem); Wang resin for C-terminal acids; DIC/HOBT
Conditions: whole synthesis, reverse-phase HPLC, C18, scale of the general procedure 0.105 mmoles

Substance	final purity (method not given)
Hydantoin(C(O)-(D-Arg-Gly))-cyclo(Cys-D-Ala-His-D-Phe-Arg-Trp-Cys)-NH2	97.0%
Hydantoin(C(O)-(Arg-Gly))-cyclo(Cys-D-Ala-His-D-2-Nal-Arg-Trp-Cys)-NH2	99.9%
Hydantoin(C(O)-(Aib-Nle))-cyclo(Cys-D-Ala-His-D-Phe-Arg-Trp-Cys)-NH2	99.9%
Hydantoin(C(O)-(Val-Gly))-cyclo(Cys-D-Ala-His-D-Phe-Arg-Trp-Cys)-NH2	96.9%
Hydantoin(C(O)-(Nle-Gly))-cyclo(Cys-D-Ala-His-D-Phe-Arg-Trp-Pen)-NH2	95.9%
Hydantoin(C(O)-(Leu-Gly))-cyclo(Cys-D-Ala-His-D-Phe-Arg-Trp-Cys)-NH2	98.0%
Hydantoin(C(O)-(Arg-Gly))-cyclo(Cys-D-Ala-His-D-Phe-Arg-Trp-Cys)-NH2	99.0%
Hydantoin(C(O)-(Cha-Nle))-cyclo(Cys-D-Ala-His-D-Phe-Arg-Trp-Cys)-NH2	95.9%
Hydantoin(C(O)-(D-Ala-Gly))-cyclo(Cys-D-Ala-His-D-Phe-Arg-Trp-Cys)-NH2	98.2%
Hydantoin(C(O)-(Ile-Gly))-cyclo(Cys-D-Ala-His-D-Phe-Arg-Trp-Cys)-NH2	98.7%
cyclo[Hydantoin(C(O)-(A6c-Cys))-D-Ala-His-D-Phe-Arg-Trp-Cys]-NH2	99.9%
cyclo[Hydantoin(C(O)-(Asp-D-Ala))-His-D-Phe-Arg-Trp-Orn]-NH2	98.7%
cyclo[Hydantoin(C(O)-(Asp-A5c))-D-2-Nal-Arg-Trp-Lys]-NH2	98.5%
Hydantoin(C(O)-(Gly-Gly))-cyclo(Cys-Glu-His-D-Phe-Arg-Trp-Cys)-NH2	98.2%
Hydantoin(C(O)-(Aib-Gly))-cyclo(Cys-D-Ala-His-D-Phe-Arg-Trp-Cys)-NH2	99.9%
cyclo[Hydantoin(C(O)-(Ile-Cys))-D-Ala-His-D-Phe-Arg-Trp-Cys]-NH2	99.9%
Hydantoin(C(O)-(Ala-Gly))-cyclo(Cys-D-Ala-His-D-Phe-Arg-Trp-Cys)-NH2	99.9%
Hydantoin(C(O)-(Gly-Arg))-cyclo(Cys-Glu-His-D-Phe-Arg-Trp-Cys)-NH2	99.0%
cyclo[Hydantoin(C(O)-(Asp-His))-D-2-Nal-Arg-Trp-Lys]-NH2	96.0%
cyclo[Hydantoin(C(O)-(Asp-A3c))-D-2-Nal-Arg-Trp-Lys]-NH2	95.8%
cyclo[Hydantoin(C(O)-(Asp-A6c))-D-2-Nal-Arg-Trp-Lys]-NH2	96.3%

Substance	final purity (method not given)
Hydantoin(C(O)-(Gly-Arg))-cyclo(Cys-D-Ala-His-D-Phe-Arg-Trp-Cys)-NH2	98.0%
Hydantoin(C(O)-(A6c-Nle))-cyclo(Cys-D-Ala-His-D-Phe-Arg-Trp-Cys)-NH2	99.9%
Hydantoin(C(O)-(Leu-Nle))-cyclo(Cys-D-Ala-His-D-Phe-Arg-Trp-Cys)-NH2	95.5%
cyclo[Hydantoin(C(O)-(Asp-D-Ala))-His-D-Phe-Arg-Trp-Dap]-NH2	97.0%
Hydantoin(C(O)-(D-Ala-Nle))-cyclo(Cys-D-Ala-His-D-Phe-Arg-Trp-Cys)-NH2	99.9%
Hydantoin(C(O)-(Gly-Gly))-cyclo(Cys-D-Ala-His-D-Phe-Arg-Trp-Cys)-NH2	99.9%
Hydantoin(C(O)-(Gly-Gly))-cyclo(Cys-D-Ala-His-D-Phe-Arg-Trp-Pen)-NH2	99.9%
Hydantoin(C(O)-(D-Arg-Gly))-cyclo(Cys-Glu-His-D-Phe-Arg-Trp-Cys)-NH2	97.7%
cyclo[Hydantoin(C(O)-(Glu-D-Ala))-His-D-Phe-Arg-Trp-Lys]-NH2	99.9%
cyclo[Hydantoin(C(O)-(Asp-Apc))-D-2-Nal-Arg-Trp-Lys]-NH2	98.7%
cyclo[Hydantoin(C(O)-(Glu-D-Ala))-His-D-Phe-Arg-Trp-Orn]-NH2	99.9%
cyclo[Hydantoin(C(O)-(Glu-D-Ala))-His-D-Phe-Arg-Trp-Dab]-NH2	95.5%
cyclo[Hydantoin(C(O)-(Aib-Cys))-D-Ala-His-D-Phe-Arg-Trp-Cys]-NH2	99.9%
Hydantoin(C(O)-(Nle-Gly))-cyclo(Cys-D-Ala-His-D-Phe-Arg-Trp-Cys)-NH2	95.2%
Hydantoin(C(O)-(Gly-D-Arg))-cyclo(Cys-D-Ala-His-D-Phe-Arg-Trp-Cys)-NH2	95.0%
cyclo[Hydantoin(C(O)-(Asp-Aic))-D-2-Nal-Arg-Trp-Lys]-NH2	99.9%
cyclo[Hydantoin(C(O)-(Leu-Cys))-D-Ala-His-D-Phe-Arg-Trp-Cys]-NH2	99.9%
cyclo[Hydantoin(C(O)-(Val-Cys))-D-Ala-His-D-Phe-Arg-Trp-Cys]-NH2	95.4%
Hydantoin(C(O)-(Val-Nle))-cyclo(Cys-D-Ala-His-D-Phe-Arg-Trp-Cys)-NH2	97.9%
Hydantoin(C(O)-(Nle-Gly))-cyclo(Cys-Glu-His-D-Phe-Arg-Trp-Cys)-NH2	95.6%
